Reference: publication PMC5309953
These are yes or no findings as the source states them, for the method shown. Binding seen in cells or lysates may run through a third protein. Some binding calls cover weakened binding; strength is not graded here.

Experiments:
[1] = molecular target: T1, MOV10 (RISC complex RNA helicase) (human (endogenous in HEK293 and A549)) (UniProt Q9HCE1); assay: co-IP; reciprocal: HEK293 cells transfected with GFP-IRAV; IP with an antibody to endogenous MOV10 (normal IgG as control), Western blot for IRAV
T1 sequence: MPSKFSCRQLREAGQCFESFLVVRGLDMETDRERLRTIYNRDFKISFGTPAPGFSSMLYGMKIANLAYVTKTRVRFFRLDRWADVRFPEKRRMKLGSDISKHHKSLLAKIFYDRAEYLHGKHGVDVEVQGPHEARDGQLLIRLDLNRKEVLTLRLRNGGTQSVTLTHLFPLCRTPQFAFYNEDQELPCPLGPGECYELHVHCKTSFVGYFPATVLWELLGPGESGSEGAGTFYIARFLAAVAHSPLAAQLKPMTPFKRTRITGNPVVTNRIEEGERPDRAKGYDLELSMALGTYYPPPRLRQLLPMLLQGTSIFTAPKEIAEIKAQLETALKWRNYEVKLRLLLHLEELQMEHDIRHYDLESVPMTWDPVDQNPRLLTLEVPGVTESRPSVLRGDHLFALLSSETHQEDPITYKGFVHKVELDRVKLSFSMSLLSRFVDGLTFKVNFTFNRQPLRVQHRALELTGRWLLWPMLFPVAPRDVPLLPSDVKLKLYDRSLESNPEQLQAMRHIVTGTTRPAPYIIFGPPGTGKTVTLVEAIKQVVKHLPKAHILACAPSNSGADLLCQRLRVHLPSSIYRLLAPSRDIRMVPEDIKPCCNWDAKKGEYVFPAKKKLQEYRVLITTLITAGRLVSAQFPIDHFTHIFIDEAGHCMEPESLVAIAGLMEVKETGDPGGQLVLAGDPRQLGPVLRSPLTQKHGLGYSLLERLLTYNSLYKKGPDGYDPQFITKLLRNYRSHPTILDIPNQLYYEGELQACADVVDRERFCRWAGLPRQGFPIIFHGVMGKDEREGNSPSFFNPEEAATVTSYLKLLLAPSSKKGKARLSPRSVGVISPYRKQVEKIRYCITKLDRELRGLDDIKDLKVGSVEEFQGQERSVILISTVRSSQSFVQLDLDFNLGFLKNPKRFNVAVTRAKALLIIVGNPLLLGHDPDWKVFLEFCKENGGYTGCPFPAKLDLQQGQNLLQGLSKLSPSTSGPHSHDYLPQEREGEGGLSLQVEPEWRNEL

[2] = molecular target: GFP-IRAV (IRAV with an amino-terminal green fluorescent protein fusion) (human) (UniProt Q9NUL5); assay: co-IP; HEK293 cells, uninfected or DENV-infected, transfected with GFP-IRAV (GFP-CAT as control); IP of lysates with an antibody to GFP, Western blot for the partner

binding [1]	binding [2]	Substance
binds		GFP-IRAV (IRAV with an amino-terminal green fluorescent protein fusion) (from UniProt Q9NUL5 1-291)
	binds	HuR (ELAV1) (from UniProt Q15717 1-326)
